This is an account of results in the supplement of paper PMC10849652.

Protein sequences, listed by entry. Tags and fused reporters are not part of them. Lines headed by an entry give the natural chain unless they say otherwise; changes in a name come on top.
UniProt P04921: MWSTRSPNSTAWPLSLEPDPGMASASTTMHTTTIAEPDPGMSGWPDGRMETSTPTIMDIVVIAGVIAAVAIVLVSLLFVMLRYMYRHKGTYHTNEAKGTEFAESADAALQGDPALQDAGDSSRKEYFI
UniProt A4D1E9: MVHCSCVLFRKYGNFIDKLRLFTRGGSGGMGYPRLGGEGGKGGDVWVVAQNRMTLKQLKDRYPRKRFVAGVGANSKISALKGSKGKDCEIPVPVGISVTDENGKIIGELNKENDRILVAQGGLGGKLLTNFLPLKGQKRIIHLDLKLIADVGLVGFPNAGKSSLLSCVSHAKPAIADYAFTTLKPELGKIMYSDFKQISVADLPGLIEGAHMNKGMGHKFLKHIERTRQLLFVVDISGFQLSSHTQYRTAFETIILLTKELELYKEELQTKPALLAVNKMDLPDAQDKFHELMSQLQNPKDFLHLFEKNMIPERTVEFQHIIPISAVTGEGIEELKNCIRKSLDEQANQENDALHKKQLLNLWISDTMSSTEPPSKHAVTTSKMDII
UniProt Q9BXW7: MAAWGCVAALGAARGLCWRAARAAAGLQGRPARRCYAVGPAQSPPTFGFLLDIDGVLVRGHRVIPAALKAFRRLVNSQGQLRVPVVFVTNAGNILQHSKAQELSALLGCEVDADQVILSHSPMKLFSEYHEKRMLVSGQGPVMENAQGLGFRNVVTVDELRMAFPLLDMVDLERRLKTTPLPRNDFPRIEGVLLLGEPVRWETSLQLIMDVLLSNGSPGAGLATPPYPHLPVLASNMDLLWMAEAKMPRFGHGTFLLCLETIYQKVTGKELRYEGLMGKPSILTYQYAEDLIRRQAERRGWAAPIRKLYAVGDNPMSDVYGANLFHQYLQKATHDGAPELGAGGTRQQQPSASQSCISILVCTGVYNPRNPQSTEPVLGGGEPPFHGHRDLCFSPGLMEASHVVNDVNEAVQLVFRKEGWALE
UniProt Q16774: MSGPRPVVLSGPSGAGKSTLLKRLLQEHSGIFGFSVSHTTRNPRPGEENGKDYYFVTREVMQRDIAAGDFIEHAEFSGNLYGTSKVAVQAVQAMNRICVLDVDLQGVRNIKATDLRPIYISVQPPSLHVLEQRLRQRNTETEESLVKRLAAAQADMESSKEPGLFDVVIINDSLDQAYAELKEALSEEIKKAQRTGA
UniProt P48637: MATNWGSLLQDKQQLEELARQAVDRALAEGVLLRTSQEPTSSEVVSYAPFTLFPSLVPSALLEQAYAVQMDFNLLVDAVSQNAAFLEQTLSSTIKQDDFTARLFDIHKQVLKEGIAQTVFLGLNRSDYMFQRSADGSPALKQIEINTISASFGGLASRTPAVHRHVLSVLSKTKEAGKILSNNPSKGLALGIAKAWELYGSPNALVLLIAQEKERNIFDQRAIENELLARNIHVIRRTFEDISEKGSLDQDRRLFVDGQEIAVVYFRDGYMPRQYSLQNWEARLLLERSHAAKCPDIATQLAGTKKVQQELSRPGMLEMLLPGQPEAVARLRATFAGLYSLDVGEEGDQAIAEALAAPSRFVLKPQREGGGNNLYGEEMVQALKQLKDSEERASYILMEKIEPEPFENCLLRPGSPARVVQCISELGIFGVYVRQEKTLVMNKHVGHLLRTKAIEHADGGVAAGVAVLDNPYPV
UniProt O15379: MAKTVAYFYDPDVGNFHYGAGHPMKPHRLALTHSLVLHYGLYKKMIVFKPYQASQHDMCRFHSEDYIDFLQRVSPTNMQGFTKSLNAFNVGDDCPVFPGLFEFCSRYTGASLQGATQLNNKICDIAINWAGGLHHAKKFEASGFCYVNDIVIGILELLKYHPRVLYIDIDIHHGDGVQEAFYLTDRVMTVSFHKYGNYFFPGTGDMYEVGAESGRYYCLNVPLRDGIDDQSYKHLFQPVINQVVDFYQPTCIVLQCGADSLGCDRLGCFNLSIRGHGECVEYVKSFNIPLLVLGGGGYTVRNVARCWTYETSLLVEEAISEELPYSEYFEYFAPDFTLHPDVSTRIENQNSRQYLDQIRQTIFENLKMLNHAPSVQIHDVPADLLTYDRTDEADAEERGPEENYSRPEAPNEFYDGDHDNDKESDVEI
UniProt Q13889: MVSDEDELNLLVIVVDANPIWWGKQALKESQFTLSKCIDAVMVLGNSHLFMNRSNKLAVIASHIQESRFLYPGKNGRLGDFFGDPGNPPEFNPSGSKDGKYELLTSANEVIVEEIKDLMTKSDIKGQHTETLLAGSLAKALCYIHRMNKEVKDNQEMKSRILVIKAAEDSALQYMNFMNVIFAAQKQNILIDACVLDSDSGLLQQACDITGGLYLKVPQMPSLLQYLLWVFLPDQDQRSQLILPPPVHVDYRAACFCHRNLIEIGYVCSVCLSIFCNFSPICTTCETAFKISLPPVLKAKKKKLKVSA
UniProt Q00403, whole entry, looked up: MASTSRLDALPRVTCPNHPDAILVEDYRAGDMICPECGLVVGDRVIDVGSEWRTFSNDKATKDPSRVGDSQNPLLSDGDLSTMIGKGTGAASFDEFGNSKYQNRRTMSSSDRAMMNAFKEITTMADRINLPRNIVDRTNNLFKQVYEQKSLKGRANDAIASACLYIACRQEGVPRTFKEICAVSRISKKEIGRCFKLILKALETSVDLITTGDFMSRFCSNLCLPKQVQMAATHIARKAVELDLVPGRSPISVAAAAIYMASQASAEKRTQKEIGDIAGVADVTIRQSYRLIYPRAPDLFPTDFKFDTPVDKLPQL
UniProt Q9P035: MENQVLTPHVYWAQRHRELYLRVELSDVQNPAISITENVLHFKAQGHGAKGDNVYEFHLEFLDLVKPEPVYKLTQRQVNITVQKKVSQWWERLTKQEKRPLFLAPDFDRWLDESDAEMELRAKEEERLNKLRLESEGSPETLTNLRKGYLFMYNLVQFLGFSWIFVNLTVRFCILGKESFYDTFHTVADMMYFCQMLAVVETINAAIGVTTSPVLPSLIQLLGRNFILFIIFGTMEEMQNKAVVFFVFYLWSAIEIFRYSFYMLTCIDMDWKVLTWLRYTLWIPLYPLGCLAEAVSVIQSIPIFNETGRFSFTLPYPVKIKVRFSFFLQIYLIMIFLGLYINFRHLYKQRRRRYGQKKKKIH
UniProt P51610: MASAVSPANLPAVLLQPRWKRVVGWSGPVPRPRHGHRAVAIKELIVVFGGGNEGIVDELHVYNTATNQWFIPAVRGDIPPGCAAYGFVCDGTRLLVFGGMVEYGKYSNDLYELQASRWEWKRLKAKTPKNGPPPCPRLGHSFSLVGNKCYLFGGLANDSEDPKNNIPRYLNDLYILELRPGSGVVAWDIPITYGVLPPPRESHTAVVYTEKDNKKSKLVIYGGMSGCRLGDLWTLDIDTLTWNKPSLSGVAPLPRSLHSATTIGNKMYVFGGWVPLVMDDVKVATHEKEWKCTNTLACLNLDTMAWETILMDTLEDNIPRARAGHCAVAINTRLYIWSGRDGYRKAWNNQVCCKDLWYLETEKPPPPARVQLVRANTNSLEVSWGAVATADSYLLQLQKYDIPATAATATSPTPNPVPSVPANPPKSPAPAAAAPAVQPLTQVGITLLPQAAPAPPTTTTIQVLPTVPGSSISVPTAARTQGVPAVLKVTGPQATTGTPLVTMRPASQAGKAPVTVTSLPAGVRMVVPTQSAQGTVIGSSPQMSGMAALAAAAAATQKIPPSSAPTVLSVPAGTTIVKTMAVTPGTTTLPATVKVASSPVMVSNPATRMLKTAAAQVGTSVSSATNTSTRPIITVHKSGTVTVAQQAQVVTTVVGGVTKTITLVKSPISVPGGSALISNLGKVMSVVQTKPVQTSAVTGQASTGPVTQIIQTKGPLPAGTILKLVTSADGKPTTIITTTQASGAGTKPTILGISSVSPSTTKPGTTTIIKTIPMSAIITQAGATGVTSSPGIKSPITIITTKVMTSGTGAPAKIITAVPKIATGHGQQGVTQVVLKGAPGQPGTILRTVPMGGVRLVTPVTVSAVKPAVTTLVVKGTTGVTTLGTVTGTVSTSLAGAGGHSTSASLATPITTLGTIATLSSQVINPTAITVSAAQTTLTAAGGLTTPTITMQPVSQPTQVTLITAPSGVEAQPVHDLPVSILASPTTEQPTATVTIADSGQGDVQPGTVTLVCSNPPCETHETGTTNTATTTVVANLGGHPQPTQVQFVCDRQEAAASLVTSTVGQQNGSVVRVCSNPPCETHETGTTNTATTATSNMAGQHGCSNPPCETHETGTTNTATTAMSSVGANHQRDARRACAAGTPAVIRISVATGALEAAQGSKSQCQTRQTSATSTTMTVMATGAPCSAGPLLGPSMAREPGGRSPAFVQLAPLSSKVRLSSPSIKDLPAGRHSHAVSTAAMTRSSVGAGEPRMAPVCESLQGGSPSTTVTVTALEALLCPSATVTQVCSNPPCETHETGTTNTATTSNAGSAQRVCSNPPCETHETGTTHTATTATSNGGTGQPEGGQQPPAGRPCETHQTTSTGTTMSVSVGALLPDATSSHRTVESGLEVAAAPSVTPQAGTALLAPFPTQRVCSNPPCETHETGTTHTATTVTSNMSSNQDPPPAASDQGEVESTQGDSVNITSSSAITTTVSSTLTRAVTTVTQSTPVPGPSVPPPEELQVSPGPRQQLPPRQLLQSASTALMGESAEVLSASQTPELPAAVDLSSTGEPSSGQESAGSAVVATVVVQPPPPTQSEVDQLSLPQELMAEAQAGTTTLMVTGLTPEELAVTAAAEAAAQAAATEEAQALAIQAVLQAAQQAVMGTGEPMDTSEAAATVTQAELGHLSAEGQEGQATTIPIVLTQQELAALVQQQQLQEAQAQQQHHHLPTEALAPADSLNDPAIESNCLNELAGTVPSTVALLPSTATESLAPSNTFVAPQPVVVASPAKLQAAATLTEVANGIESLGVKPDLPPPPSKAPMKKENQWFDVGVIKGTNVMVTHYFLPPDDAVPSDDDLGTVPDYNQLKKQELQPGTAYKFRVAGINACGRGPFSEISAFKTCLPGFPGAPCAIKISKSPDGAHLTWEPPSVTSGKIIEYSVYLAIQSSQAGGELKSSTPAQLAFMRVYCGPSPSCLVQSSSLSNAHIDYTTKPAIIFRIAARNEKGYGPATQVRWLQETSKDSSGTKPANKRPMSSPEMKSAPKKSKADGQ
UniProt Q7Z4Q2: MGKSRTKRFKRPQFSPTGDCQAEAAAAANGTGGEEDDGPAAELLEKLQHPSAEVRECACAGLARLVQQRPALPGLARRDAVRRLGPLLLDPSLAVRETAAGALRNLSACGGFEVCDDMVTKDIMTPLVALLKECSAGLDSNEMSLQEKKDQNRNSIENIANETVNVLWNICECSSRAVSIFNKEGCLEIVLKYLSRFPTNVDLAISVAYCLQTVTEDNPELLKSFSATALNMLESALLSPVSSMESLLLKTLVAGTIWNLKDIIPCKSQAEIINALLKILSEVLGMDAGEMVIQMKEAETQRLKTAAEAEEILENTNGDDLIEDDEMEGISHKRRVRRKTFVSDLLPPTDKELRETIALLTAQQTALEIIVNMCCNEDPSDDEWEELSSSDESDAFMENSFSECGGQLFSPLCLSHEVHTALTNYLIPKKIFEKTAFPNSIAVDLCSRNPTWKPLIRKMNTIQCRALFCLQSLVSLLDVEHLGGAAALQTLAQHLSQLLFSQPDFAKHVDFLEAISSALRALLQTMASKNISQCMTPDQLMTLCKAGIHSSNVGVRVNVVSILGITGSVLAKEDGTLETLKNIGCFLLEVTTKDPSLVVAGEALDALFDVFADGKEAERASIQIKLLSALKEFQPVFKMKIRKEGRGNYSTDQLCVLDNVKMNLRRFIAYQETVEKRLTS
UniProt O14929: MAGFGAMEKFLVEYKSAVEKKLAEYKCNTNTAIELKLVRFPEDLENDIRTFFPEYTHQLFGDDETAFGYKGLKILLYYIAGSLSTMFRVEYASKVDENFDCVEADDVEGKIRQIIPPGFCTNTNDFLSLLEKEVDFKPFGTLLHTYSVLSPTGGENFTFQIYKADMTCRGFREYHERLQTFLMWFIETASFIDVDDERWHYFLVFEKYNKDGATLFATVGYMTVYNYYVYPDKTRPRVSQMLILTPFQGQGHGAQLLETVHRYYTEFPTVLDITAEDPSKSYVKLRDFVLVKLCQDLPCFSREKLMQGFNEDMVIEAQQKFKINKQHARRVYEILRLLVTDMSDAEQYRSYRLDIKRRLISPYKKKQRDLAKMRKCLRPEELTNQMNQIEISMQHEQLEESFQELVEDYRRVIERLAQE
UniProt P52657, whole entry, looked up: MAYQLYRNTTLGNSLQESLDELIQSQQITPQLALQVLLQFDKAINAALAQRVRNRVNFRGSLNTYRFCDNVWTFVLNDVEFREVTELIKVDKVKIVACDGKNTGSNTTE
UniProt P10412, whole entry, looked up: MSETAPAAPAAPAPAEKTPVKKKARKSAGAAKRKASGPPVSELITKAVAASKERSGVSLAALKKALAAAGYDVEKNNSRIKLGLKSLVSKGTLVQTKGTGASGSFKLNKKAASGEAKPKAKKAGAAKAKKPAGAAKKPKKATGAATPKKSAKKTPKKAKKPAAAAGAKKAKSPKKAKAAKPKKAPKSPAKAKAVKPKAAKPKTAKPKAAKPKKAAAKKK

The other results are listed elsewhere or left out.

Compound in one assay: C1=CC=C(C=C1)[C@H](COC2=CC3=C(C=C2)NC(=O)N3)NC(=O)C4=CC=CN(C4=O)CC5=CC(=C(C=C5)F)F
Briefly: log2 fold change, soluble protein after heating vs DMSO (PISA); higher = thermal stabilisation; K562 cells, 10 uM, 30 min; active = over 0.2 and 3.5 SD of the protein, either way, in both replicates (recomputed). A digest of the protocol:
(§1)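 K562 cells at 2×10^6 cells/mL were treated for 30 min with 10 μM compound, and aliquots were heated for 3 min over 48°C-58°C before pooling. Extraction used PBS with 0.5% NP-40 at 4°C, and soluble protein was the supernatant after 21,000xg for 90 min, measured by TMTpro 16plex LC-MS/MS with channel sums equalised. Thermal stability values, relative to control samples and from duplicates, are log2 fold changes.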
Consider GYPC (UniProt P04921), for which the log2 fold change was inactive: -0.157.

In the case of GTPBP10 (UniProt A4D1E9), the log2 fold change was inactive: -0.231.

Turning to GSTO1 (UniProt P78417), the log2 fold change is inactive: -0.024.

Take H1FX (UniProt Q92522): the log2 fold change was inactive: 0.088.

In the case of HDHD5 (UniProt Q9BXW7), the log2 fold change was inactive: -0.073.

On to GUK1 isoform 2 (UniProt Q16774), for which the log2 fold change was inactive: -0.042.

In the case of HBZ, A0A494C057, the log2 fold change is inactive: -0.047.

For H1-3 (UniProt P16402), the log2 fold change was inactive: 0.139.

As to GTF3C6 (UniProt Q969F1), the log2 fold change was inactive: 0.016.

Consider HEATR5A (UniProt Q86XA9), for which the log2 fold change was inactive: -0.144.

As to HARS (UniProt P12081), the log2 fold change is inactive: 0.005.

With HELB (UniProt Q8NG08), the log2 fold change is inactive: 0.008.

Turning to GTF3A (UniProt Q92664), the log2 fold change is inactive: 0.002.

Compound in the next assay: CC1=C(SC2=C1C(=N[C@H](C3=NN=C(N32)C)CC(=O)N)C4=CC=C(C=C4)Cl)C
The description is as above. The method, boiled down: as §1
As to H3-3A (UniProt P84243), the log2 fold change is inactive: 0.053.

Take GSS (UniProt P48637): the log2 fold change was inactive: 0.02.

For the target HDAC3 isoform 2 (UniProt O15379), the log2 fold change was inactive: -0.209.

For the target GTF2H3 (UniProt Q13889), the log2 fold change is inactive: 0.065.

Regarding HDGFL3 (UniProt Q9Y3E1), the log2 fold change is inactive: 0.008.

Take GTF2B (UniProt Q00403): the log2 fold change was inactive: 0.007.

Take GTF3C1 (UniProt Q12789): the log2 fold change is inactive: -0.222.

Consider HACD3 (UniProt Q9P035), for which the log2 fold change was inactive: 0.049.

With HCFC1 isoform 4 (UniProt P51610), the log2 fold change is inactive: 0.06.

Take HELQ (UniProt Q8TDG4): the log2 fold change was inactive: -0.045.

With HDGF (UniProt P51858), the log2 fold change is inactive: 0.012.

As for HEATR3 (UniProt Q7Z4Q2), the log2 fold change is inactive: -0.014.

For HAT1 (UniProt O14929), the log2 fold change is inactive: -0.005.

For GTF2A2 (UniProt P52657), the log2 fold change was inactive: 0.057.

GTPBP6 (UniProt O43824): the log2 fold change is inactive: 0.007.

With HEXA (UniProt P06865), the log2 fold change was inactive: -0.004.

For GYG1 (UniProt P46976), the log2 fold change was inactive: -0.077.

In the case of H1-4 (UniProt P10412), the log2 fold change is inactive: -0.379.

For GTF2F1 (UniProt P35269), the log2 fold change was inactive: 0.012.

In the case of HEMGN (UniProt Q9BXL5), the log2 fold change is inactive: -0.003.

For HAGH (UniProt Q16775), the log2 fold change was inactive: 0.043.

In the case of GYPC (UniProt P04921), the log2 fold change was inactive: -0.01.

Consider GTPBP10 (UniProt A4D1E9), for which the log2 fold change is inactive: -0.087.

Consider GSTO1 (UniProt P78417), for which the log2 fold change is inactive: 0.028.

In the case of H1FX (UniProt Q92522), the log2 fold change was inactive: -0.146.

With HDHD5 (UniProt Q9BXW7), the log2 fold change is inactive: 0.043.

For GUK1 isoform 2 (UniProt Q16774), the log2 fold change is inactive: 0.003.

For H1-3 (UniProt P16402), the log2 fold change was inactive: -0.288.

As for GTF3C6 (UniProt Q969F1), the log2 fold change is inactive: -0.09.

In the case of HEATR5A (UniProt Q86XA9), the log2 fold change was inactive: -0.032.

HARS (UniProt P12081): the log2 fold change is inactive: 0.

For the target HELB (UniProt Q8NG08), the log2 fold change was inactive: 0.008.

As to GTF3A (UniProt Q92664), the log2 fold change is inactive: -0.001.
